PubChem BioAssay AID1508600 (Functional Genomics Laboratory (NCATS/FGL), 2020)
About 3,700 (7%) of roughly 53,000 sequences were called active.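 How the source made its calls: active means gene knockdowns whose robust z-score for IL-1 alpha signal is at least 2 or at most -2, so actives lie on both sides; inactive means the rest.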 The list shows a part of the results.

test: Components of the Cytosolic LPS Sensing Pathway: Gene Identification via Genome-wide siRNA Screen; settings: RAW264.7 macrophages, IL-1a HTRF, actives lie on both sides, screened at 100 nM (by protocol), cells primed 5 h with Pam3CSK4 first;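 further: robust z of the log signal after scaling to non-targeting control siRNA wells of the plate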
In short: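 Three distinct siRNAs per gene were tested singly at 100 nM in RAW264.7 macrophages. Following Pam3CSK4 priming and 24 hour LipidA transfection, IL-1a secretion was read by HTRF.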

Sequence	z-score
GGCUAGCUUGGUUCAUUUATT against Oma1	inactive: 1.37
GGAGACUCUUCAAUUGAGCTT against Fam229b	inactive: -0.335
GGACCUUGCAUUUGCUUACTT against Fez2	inactive: -0.716
GGCUCUUACUUCAUCACUATT against Casp4	inactive: -1.9
GGCCGUGACAAAAUAGUAGTT against Vmn1r228	inactive: -0.599
GGUUGUGGAAAAUGUUAGGTT against Olfr1054	inactive: -0.644
GGAAAUUGCCAAACAUUUUTT against Plekhg3	inactive: -0.36
GGAUCAUGGAUGUAUAAAGTT against Lrrn4	inactive: -1.25
GAUGGACAAACGGAAGUGCTT against Iapp	inactive: 0.322
GCUUAGGUAAUUUCAAGGUTT against Ppp1r15b	inactive: 1.31
GGGACCAACUCCUAACAGATT against Csf2rb	inactive: -1.28
GCAUAAUAGCGCAAGCUACTT against Ifi47	inactive: 0.0047
GCAACCAUCUGAUGAUUAATT against Pp2d1	inactive: 1.83
GCUUGUGAAUUAAUGAACATT against Farsb	inactive: -0.625
CCAGCAAAUGGAUAACUUGTT against Epas1	inactive: 1.49
GGUGGAGCUCAGUAUUCUGTT against Nrsn1	inactive: -0.28
GGAGGCUUUCUUCAGAAUGTT against Vmn1r-ps103	inactive: 0.998
GCCGAUCAGAUGUAAUUCUTT against Cd276	inactive: -1.52
GCUAUGUUAUCACCACCAATT against Kcnab3	inactive: 0.114
GGAGGAAGUGUUUUUCUCCTT against Psg27	inactive: -1.18
AGUCUUCACGUUUCAUUUATT against Olfr1195	inactive: 0.32
CCAGUUGUAUAUGGUGUAGTT against Neurl4	inactive: -0.267
CGACAUGACCAAGAACGAUTT against Zyx	inactive: -1.25

Sequence	z-score
GGGCAGUAAGGACAGUUUUTT against Oaz1	inactive: 0.406
CCUGCCAACUACGAAUGAATT against Stx8	inactive: 0.845
GCGCAGAGAGAAAUAUCCCTT against Map4k1	inactive: -0.777
GCCUAGUUCUUUAUGCUAUTT against Golga4	active: 4.37
GGAAAUUUGGAAAUUGCCUTT against Ntm	active: 2.46
GGGCACUUCUUCAAUGUAUTT against Arl6ip6	inactive: -0.462
GCUGACUUUUAGUCAAGGATT against Dab2	inactive: 0.87
CCAAGGACUCUCAUCUGUUTT against Zfp474	inactive: -0.712
GCUCAUGACACUCUUCCUGTT against Spib	inactive: 1.45
CGAGUUGAAAUGUUGGCAATT against Klb	inactive: -0.278
GCCUGACUAGAAAUAAAAATT against Pde4c	inactive: -0.448
CAGUCUACCAGAUCCUUCCTT against H2-Q8	inactive: -0.418
CCUAGAUUCUCCAAACUAATT against D630029K05Rik	inactive: -0.238
GGUCCAUCGAAGAAGUUCUTT against Cmas	inactive: 0.983
CCCAGAUCUAGACUCCGACTT against Maf1	inactive: 1.65
GGAGAUCAAAAAAAGAAAGTT against Cfl2	inactive: -0.816
GGCUCUCUUAGUUGUAUCATT against Mrpl35	inactive: -0.0818
GGCCCUGAAGAAAGUUAUUTT against Olfr830	inactive: 0.87
GGGUGAGAGGAAACAGAAATT against Mtif3	inactive: -0.276
GGCCAAGAAUUCUCUGGUCTT against Six5	inactive: -0.0725
CCAGAUGGUCAAUCAGGCATT against Bola3	inactive: -0.304
GGUAGUCACUUUCAGAGGATT against Cnot6	inactive: 0.823
GGAAAAGCAAGUCAAUCAATT against Polk	inactive: 0.608

Sequence	z-score
CGCAGGACUAUAAACUGAATT against Ptdss2	inactive: 0.954
GCACAAUAAACUUGAUAACTT against Mepce	inactive: 0.843
GCACCUAAUGAUCACAGUGTT against Nrip3	inactive: 0.393
GGAUGAUGAGCUGAACUUUTT against Mgrn1	inactive: -0.897
GCAUAACUCCCAUCCAUAGTT against Glra2	inactive: -0.622
GGUUGUUAAUCAGUGUUUATT against Ciao2b	inactive: -0.257
GGUUGAGGAAACAAGACAUTT against Fbxo42	inactive: -0.478
GGACUGCUGGGAGAACUUUTT against Zcchc3	inactive: 0.76
GGAAGUUUGAGUUUGAGCUTT against Fbxl21	inactive: 1.79
GGUCUCCUUGAGUCUUCCATT against Hes3	inactive: 0.647
CCAAUGAGAGGUAAAAAACTT against Tafa1	inactive: -0.582
UGCAGUCCAUAUCCUCAUGTT against Olfr645	inactive: -0.791
GGGAUGUUAACCAAGCUUUTT against Cntf	inactive: 1.06
GCAGGAGUUUAACCUUCCATT against Gmppa	inactive: -1.9
GCUGGAGUAUUUACUACACTT against Ndufab1	inactive: 0.769
GGACAUUUCAAAAGAAAGGTT against Medag	inactive: -1.49
GUCCCAAUACCUUCUUGUUTT against Vmn1r21	inactive: -0.12
GCCUUGAAGUUCAAAGGAATT against Nob1	inactive: -0.266
GGUGCAGAGCUGGUUGACUTT against Tubb4b	inactive: -0.641
GGAGAAUUUGACUUUAAUGTT against Eif4enif1	inactive: -0.199
GCCAGGACUUGUUAAAAAGTT against Limch1	inactive: -0.633
GGAAAGAUCGAGGAAGAUATT against Cuta	inactive: -1.47

Another view of part of the listing above.
Sequence,z-score
GGAUGAUGAGCUGAACUUUTT against Mgrn1,inactive: -0.897
GCAUAACUCCCAUCCAUAGTT against Glra2,inactive: -0.622
GGUUGUUAAUCAGUGUUUATT against Ciao2b,inactive: -0.257
GGUUGAGGAAACAAGACAUTT against Fbxo42,inactive: -0.478
GGACUGCUGGGAGAACUUUTT against Zcchc3,inactive: 0.76
GGAAGUUUGAGUUUGAGCUTT against Fbxl21,inactive: 1.79
GGUCUCCUUGAGUCUUCCATT against Hes3,inactive: 0.647
CCAAUGAGAGGUAAAAAACTT against Tafa1,inactive: -0.582
UGCAGUCCAUAUCCUCAUGTT against Olfr645,inactive: -0.791
GGGAUGUUAACCAAGCUUUTT against Cntf,inactive: 1.06
GCAGGAGUUUAACCUUCCATT against Gmppa,inactive: -1.9
GCUGGAGUAUUUACUACACTT against Ndufab1,inactive: 0.769
GGACAUUUCAAAAGAAAGGTT against Medag,inactive: -1.49
GUCCCAAUACCUUCUUGUUTT against Vmn1r21,inactive: -0.12
GCCUUGAAGUUCAAAGGAATT against Nob1,inactive: -0.266
GGUGCAGAGCUGGUUGACUTT against Tubb4b,inactive: -0.641
GGAGAAUUUGACUUUAAUGTT against Eif4enif1,inactive: -0.199
